Assay results as given in doi:10.1101/2025.08.21.671625, “α-catenin phosphorylation is actomyosin-sensitive and required for epithelial barrier functions through Afadin” (bioRxiv, 2025).

Amino acid sequences for entries named in this document (tags omitted). A change or cut given only in a name is not applied to a line headed by its entry.
UniProt P26232: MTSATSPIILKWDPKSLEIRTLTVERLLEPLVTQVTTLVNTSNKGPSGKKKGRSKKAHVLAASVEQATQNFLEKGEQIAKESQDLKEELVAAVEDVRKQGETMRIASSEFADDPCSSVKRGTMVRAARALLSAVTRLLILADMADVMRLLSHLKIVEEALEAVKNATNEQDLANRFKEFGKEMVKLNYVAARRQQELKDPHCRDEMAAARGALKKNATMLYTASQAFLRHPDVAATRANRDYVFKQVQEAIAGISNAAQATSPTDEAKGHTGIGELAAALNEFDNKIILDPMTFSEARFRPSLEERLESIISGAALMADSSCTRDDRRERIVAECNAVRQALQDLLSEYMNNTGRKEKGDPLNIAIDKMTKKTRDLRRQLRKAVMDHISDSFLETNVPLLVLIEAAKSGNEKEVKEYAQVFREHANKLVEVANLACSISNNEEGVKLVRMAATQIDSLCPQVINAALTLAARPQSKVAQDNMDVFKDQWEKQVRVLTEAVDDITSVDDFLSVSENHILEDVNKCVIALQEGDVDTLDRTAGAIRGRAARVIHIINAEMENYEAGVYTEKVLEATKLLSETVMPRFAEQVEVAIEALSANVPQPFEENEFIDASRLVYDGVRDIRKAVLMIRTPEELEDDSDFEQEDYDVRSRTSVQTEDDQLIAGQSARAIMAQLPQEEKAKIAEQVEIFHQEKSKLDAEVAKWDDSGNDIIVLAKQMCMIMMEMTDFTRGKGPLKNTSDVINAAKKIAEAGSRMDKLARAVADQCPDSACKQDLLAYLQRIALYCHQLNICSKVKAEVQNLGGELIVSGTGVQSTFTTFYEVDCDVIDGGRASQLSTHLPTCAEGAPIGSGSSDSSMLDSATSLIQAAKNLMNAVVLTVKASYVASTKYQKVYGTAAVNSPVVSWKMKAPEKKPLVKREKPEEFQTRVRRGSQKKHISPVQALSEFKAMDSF

Biological target: T1, GST-Afadin-Coiled-coil α-cat binding region (Afadin-CC-ABR; amino acids 1391–1449) (rat)
T1 sequence: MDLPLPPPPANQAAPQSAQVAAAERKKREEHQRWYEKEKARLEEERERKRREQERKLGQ
Experiment: pull-down; GST-Afdn-CC-ABR (or GST control) pre-bound to glutathione resin, mixed with α-cat prey proteins, washed, eluted with free glutathione; interaction strength assessed by Coomassie staining; both purified

binding	Substance
binds weakly	αN-cat M1–3 WT (from UniProt P26232) (domain or fragment)
binds	αN-cat M2–3 WT (from UniProt P26232) (domain or fragment)

These are yes or no findings as the source states them, for the method shown. A result given as binding can be weak or reduced; the word gives no strength. Sequences can lack the tags named with a protein.
